Experimental data: PubChem BioAssay AID1259274 (Sanger Institute, 2017)

- Screen: 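Kinases RKO cells need to grow, alone or with anchor drugs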 (primary screen)
- System: human RKO colorectal cancer cells
- Reagents: siRNA pool against human genes
- Challenge: anchor drugs BYL719 at 1 µM, cetuximab at 5 µg/ml or trametinib at 10 nM; DMSO vehicle as the no-drug arm
- Detection: 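Viability of cells versus control pool 2 (non-targeting) averaged across replicates; knock-down-only robust z-score; for every anchor drug (BYL719, cetuximab, trametinib) a synergy score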
- Reading the numbers: viability z-score, siRNA alone: higher = more viable cells; low values mean essential gene; viability, siRNA alone, vehicle: higher = more viable cells; synergy score with BYL719 and synergy score with Trametinib and synergy score with Cetuximab: higher = stronger combined killing with the drug
- Rule for the call: 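Essential when the robust viability z-score with siRNA only falls below -3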
- Calls: active = essential when knocked down alone; inactive = no change alone
This is a random part of 794 reagents tested. In the full data, 11 (1.4%) got an active call. 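Calls rest on knock-down without drug only; synergy scores with anchor drugs were not used for the essential call.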 The numbers tell different reagents against one gene apart. Viability is capped at 1. Reagent sequences are not shown. Not given: the amount of reagent, the time to read-out.

no.	Target gene	reagent	viability z-score, siRNA alone	viability, siRNA alone, vehicle (fraction of control)	synergy score with BYL719	synergy score with Trametinib	synergy score with Cetuximab	Outcome
1	PRKCA (GeneID 5578)	1	-0.492	0.856	-0.144	-0.108	-0.144	inactive
2	CDK19 (GeneID 23097)	1	1.19	1	-0.103	-0.183	0.0569	inactive
3	DYRK4 (GeneID 8798)	1	0.375	0.93	-0.0816	-0.0512	0.018	inactive
4	SMC1A (GeneID 8243)	1	-0.353	0.868	-0.0398	0.000391	0.00968	inactive
5	MELK (GeneID 9833)	1	0.797	0.966	0.0433	-0.0747	0.0708	inactive
6	EFNA4 (GeneID 1945)	1	0.873	0.973	-0.0346	-0.108	-0.0272	inactive
7	CDK13 (GeneID 8621)	1	-0.553	0.851	-0.173	-0.155	-0.146	inactive
8	TSSK1B (GeneID 83942)	1	1.14	0.996	0.0142	-0.0124	0.0692	inactive
9	MAP2K6 (GeneID 5608)	1	1.19	1	0.00208	-0.152	0	inactive
10	PASK (GeneID 23178)	1	1.19	1	0.0231	-0.097	0.0481	inactive
11	STK31 (GeneID 56164)	1	0.199	0.915	-0.0356	-0.184	0.00987	inactive
12	CDK4 (GeneID 1019)	1	0.332	0.926	0.05	-0.0316	-0.0736	inactive
13	MARK1 (GeneID 4139)	1	-1.51	0.769	-0.0956	0.0197	-0.0911	inactive
14	BRSK2 (GeneID 9024)	1	1.19	1	-0.0149	-0.0716	0.0416	inactive
15	PDPK1 (GeneID 5170)	1	-2.65	0.671	-0.00594	-0.182	-0.189	inactive
16	TNK2 (GeneID 10188)	1	1.19	1	-0.167	-0.215	0.0479	inactive
17	CDK16 (GeneID 5127)	1	-1.52	0.768	-0.089	-0.149	-0.144	inactive
18	MAP3K9 (GeneID 4293)	1	0.168	0.912	0.103	0.0891	0.0558	inactive
19	NLK (GeneID 51701)	1	-0.925	0.819	-0.0297	-0.0223	-0.0774	inactive
20	INSR (GeneID 3643)	1	0.175	0.913	-0.153	-0.116	0.0513	inactive
21	STK32A (GeneID 202374)	1	0.817	0.968	-0.183	-0.125	-0.032	inactive
22	TTBK1 (GeneID 84630)	1	1.19	1	0.0297	-0.158	0.0397	inactive
23	STK11 (GeneID 6794)	1	0.427	0.935	0.0336	-0.119	0.0304	inactive
24	BMPR1B (GeneID 658)	1	0.401	0.932	0.0111	-0.0953	0.00539	inactive
25	CALM3 (GeneID 808)	1	-0.787	0.831	-0.0708	-0.168	0.000586	inactive
26	TAOK2 (GeneID 9344)	1	0.91	0.976	-0.0393	-0.171	-0.0241	inactive
27	MAPK10 (GeneID 5602)	1	1.19	1	-0.0809	0.000945	0.00478	inactive
28	MAGI3 (GeneID 260425)	1	0.383	0.931	-0.0707	-0.149	-0.0692	inactive
29	RIPK1 (GeneID 8737)	1	-0.498	0.855	-0.12	-0.181	-0.0717	inactive
30	ALDH18A1 (GeneID 5832)	1	0.119	0.908	-0.07	-0.237	-0.0235	inactive
31	MUSK (GeneID 4593)	1	-0.308	0.872	-0.098	-0.252	-0.0694	inactive
32	SF3B1 (GeneID 23451)	1	-5.61	0.418	-0.068	-0.116	-0.163	active
33	ULK3 (GeneID 25989)	1	0.919	0.977	-0.0694	-0.194	-0.0012	inactive
34	RYK (GeneID 6259)	1	-0.214	0.88	-0.041	-0.154	0.0253	inactive
35	CKMT1B (GeneID 1159)	1	0.493	0.94	0.011	-0.121	0.0091	inactive
36	CDC42BPG (GeneID 55561)	1	0.904	0.975	0.0111	-0.187	-0.0245	inactive
37	ITPKB (GeneID 3707)	1	1.19	1	-0.171	-0.0744	0	inactive
38	ABL1 (GeneID 25)	1	0.664	0.955	-0.128	-0.094	0.00864	inactive
39	STK33 (GeneID 65975)	1	1.19	1	-0.0183	-0.13	0.00797	inactive
40	PKN1 (GeneID 5585)	1	0.698	0.958	-0.0344	-0.155	-0.0121	inactive
41	MECOM (GeneID 2122)	1	0.296	0.923	-0.0819	-0.12	-0.0766	inactive
42	MAPK13 (GeneID 5603)	1	1.19	1	0.0219	-0.242	0.0312	inactive
43	JAK2 (GeneID 3717)	1	1.19	1	0.0361	-0.329	0.162	inactive
44	PLK3 (GeneID 1263)	1	0.36	0.929	-0.021	-0.131	0.0401	inactive
45	RNASEL (GeneID 6041)	1	1.19	1	-0.16	-0.166	0	inactive
46	MYLK2 (GeneID 85366)	1	-1.01	0.811	0.0543	-0.105	-0.082	inactive
47	CDK5R2 (GeneID 8941)	1	0.965	0.981	-0.0131	0.0199	0.137	inactive
48	PDK3 (GeneID 5165)	1	-0.0236	0.896	-0.000999	-0.122	-0.0105	inactive
49	PKLR (GeneID 5313)	1	0.933	0.978	-0.0822	-0.145	0.0551	inactive
50	CAMKK2 (GeneID 10645)	1	0.338	0.927	-0.0769	-0.0936	0.00593	inactive
51	PRKCSH (GeneID 5589)	1	1.12	0.994	0.0294	-0.0984	0.124	inactive
52	ERBB2 (GeneID 2064)	1	0.111	0.907	-0.139	-0.19	-0.0763	inactive
53	DMPK (GeneID 1760)	1	-0.553	0.851	-0.0732	-0.119	-0.0451	inactive
54	ILK (GeneID 3611)	1	0.0872	0.905	-0.0957	-0.114	-0.023	inactive
55	ILK (GeneID 3611)	2	-1.23	0.793	-0.0966	-0.155	0.00321	inactive
56	CLSPN (GeneID 63967)	1	-2.82	0.656	0.0403	-0.0304	-0.00729	inactive
57	CDKL5 (GeneID 6792)	1	1.04	0.987	-0.0785	-0.147	-0.0129	inactive
58	TRPM7 (GeneID 54822)	1	-2.18	0.711	-0.0471	-0.226	-0.155	inactive
59	TAF1 (GeneID 6872)	1	-0.318	0.871	-0.0758	-0.27	-0.0979	inactive
60	TYRO3 (GeneID 7301)	1	0.9	0.975	-0.0214	-0.0688	0.0213	inactive
61	DGKD (GeneID 8527)	1	0.948	0.979	-0.00739	-0.136	0.0918	inactive
62	MOK (GeneID 5891)	1	-1.32	0.785	-0.103	-0.276	-0.215	inactive
63	PRKCZ (GeneID 5590)	1	-1.23	0.793	-0.136	0.0503	-0.0876	inactive

7 neighbouring records from above, for reference:
no.	Target gene	reagent	viability z-score, siRNA alone	viability, siRNA alone, vehicle (fraction of control)	synergy score with BYL719	synergy score with Trametinib	synergy score with Cetuximab	Outcome
32	SF3B1 (GeneID 23451)	1	-5.61	0.418	-0.068	-0.116	-0.163	active
33	ULK3 (GeneID 25989)	1	0.919	0.977	-0.0694	-0.194	-0.0012	inactive
34	RYK (GeneID 6259)	1	-0.214	0.88	-0.041	-0.154	0.0253	inactive
35	CKMT1B (GeneID 1159)	1	0.493	0.94	0.011	-0.121	0.0091	inactive
36	CDC42BPG (GeneID 55561)	1	0.904	0.975	0.0111	-0.187	-0.0245	inactive
37	ITPKB (GeneID 3707)	1	1.19	1	-0.171	-0.0744	0	inactive
38	ABL1 (GeneID 25)	1	0.664	0.955	-0.128	-0.094	0.00864	inactive
